Assay results from PMC7956269.
These are yes or no findings as the source states them, for the method shown. Binding seen in cells or lysates may run through a third protein. A yes stands for co-enrichment or nearness to the bait. Other partners may have been found.

target: Biotin-FOXC1 (mouse) (UniProt Q61572); assay: affinity purification with mass spectrometry; streptavidin-agarose precipitation of biotinylated FOXC1 from nuclear extract of stable HEK293T cells (293T-Biotin-FOXC1); IP350 buffer (350 mM NaCl, 20 mM Tris-HCl pH 7.5, 0.5% NP40, 1 mM EDTA, 10% glycerin); SDS-PAGE, LC-ESI-MS/MS; proteins of the 293T-Biotin control deducted

Row | Binder | binding
1 | Noc4l (protein, UniProt Q9BVI4 1-516) MEREPGAAGVRRALGRRLEAVLASRSEANAVFDILAVLQSEDQEEIQEAVRTCSRLFGALLERGELFVGQLPSEEMVMTGSQGATRKYKVWMRHRYHSCCNRLGELLGHPSFQVKELALSALLKFVQLEGAHPLEKSKWEGNYLFPRELFKLVVGGLLSPEEDQSLLLSQFREYLDYDDTRYHTMQAAVDAVARVTGQHPEVPPAFWNNAFTLLSAVSLPRREPTVSSFYVKRAELWDTWKVAHLKEHRRVFQAMWLSFLKHKLPLSLYKKVLLIVHDAILPQLAQPTLMIDFLTRACDLGGALSLLALNGLFILIHKHNLEYPDFYRKLYGLLDPSVFHVKYRARFFHLADLFLSSSHLPAYLVAAFAKRLARLALTAPPEALLMVLPFICNLLRRHPACRVLVHRPHGPELDADPYDPGEEDPAQSRALESSLWELQALQRHYHPEVSKAASVINQALSMPEVSIAPLLELTAYEIFERDLKKKGPEPVPLEFIPAQGLLGRPGELCAQHFTLS | binds
2 | Nop14 (protein, UniProt P78316 1-857) MAKAKKVGARRKASGAPAGARGGPAKANSNPFEVKVNRQKFQILGRKTRHDVGLPGVSRARALRKRTQTLLKEYKERDKSNVFRDKRFGEYNSNMSPEEKMMKRFALEQQRHHEKKSIYNLNEDEELTHYGQSLADIEKHNDIVDSDSDAEDRGTLSAELTAAHFGGGGGLLHKKTQQEGEEREKPKSRKELIEELIAKSKQEKRERQAQREDALELTEKLDQDWKEIQTLLSHKTPKSENRDKKEKPKPDAYDMMVRELGFEMKAQPSNRMKTEAELAKEEQEHLRKLEAERLRRMLGKDEDENVKKPKHMSADDLNDGFVLDKDDRRLLSYKDGKMNVEEDVQEEQSKEASDPESNEEEGDSSGGEDTEESDSPDSHLDLESNVESEEENEKPAKEQRQTPGKGLISGKERAGKATRDELPYTFAAPESYEELRSLLLGRSMEEQLLVVERIQKCNHPSLAEGNKAKLEKLFGFLLEYVGDLATDDPPDLTVIDKLVVHLYHLCQMFPESASDAIKFVLRDAMHEMEEMIETKGRAALPGLDVLIYLKITGLLFPTSDFWHPVVTPALVCLSQLLTKCPILSLQDVVKGLFVCCLFLEYVALSQRFIPELINFLLGILYIATPNKASQGSTLVHPFRALGKNSELLVVSAREDVATWQQSSLSLRWASRLRAPTSTEANHIRLSCLAVGLALLKRCVLMYGSLPSFHAIMGPLQALLTDHLADCSHPQELQELCQSTLTEMESQKQLCRPLTCEKSKPVPLKLFTPRLVKVLEFGRKQGSSKEEQERKRLIHKHKREFKGAVREIRKDNQFLARMQLSEIMERDAERKRKVKQLFNSLATQEGEWKALKRKKFKK | binds
3 | Rrp12 (protein, UniProt Q5JTH9 1-1297) MGRSGKLPSGVSAKLKRWKKGHSSDSNPAICRHRQAARSRFFSRPSGRSDLTVDAVKLHNELQSGSLRLGKSEAPETPMEEEAELVLTEKSSGTFLSGLSDCTNVTFSKVQRFWESNSAAHKEICAVLAAVTEVIRSQGGKETETEYFAALMTTMEAVESPESLAAVAYLLNLVLKRVPSPVLIKKFSDTSKAFMDIMSAQASSGSTSVLRWVLSCLATLLRKQDLEAWGYPVTLQVYHGLLSFTVHPKPKIRKAAQHGVCSVLKGSEFMFEKAPAHHPAAISTAKFCIQEIEKSGGSKEATTTLHMLTLLKDLLPCFPEGLVKSCSETLLRVMTLSHVLVTACAMQAFHSLFHARPGLSTLSAELNAQIITALYDYVPSENDLQPLLAWLKVMEKAHINLVRLQWDLGLGHLPRFFGTAVTCLLSPHSQVLTAATQSLKEILKECVAPHMADIGSVTSSASGPAQSVAKMFRAVEEGLTYKFHAAWSSVLQLLCVFFEACGRQAHPVMRKCLQSLCDLRLSPHFPHTAALDQAVGAAVTSMGPEVVLQAVPLEIDGSEETLDFPRSWLLPVIRDHVQETRLGFFTTYFLPLANTLKSKAMDLAQAGSTVESKIYDTLQWQMWTLLPGFCTRPTDVAISFKGLARTLGMAISERPDLRVTVCQALRTLITKGCQAEADRAEVSRFAKNFLPILFNLYGQPVAAGDTPAPRRAVLETIRTYLTITDTQLVNSLLEKASEKVLDPASSDFTRLSVLDLVVALAPCADEAAISKLYSTIRPYLESKAHGVQKKAYRVLEEVCASPQGPGALFVQSHLEDLKKTLLDSLRSTSSPAKRPRLKCLLHIVRKLSAEHKEFITALIPEVILCTKEVSVGARKNAFALLVEMGHAFLRFGSNQEEALQCYLVLIYPGLVGAVTMVSCSILALTHLLFEFKGLMGTSTVEQLLENVCLLLASRTRDVVKSALGFIKVAVTVMDVAHLAKHVQLVMEAIGKLSDDMRRHFRMKLRNLFTKFIRKFGFELVKRLLPEEYHRVLVNIRKAEARAKRHRALSQAAVEEEEEEEEEEEPAQGKGDSIEEILADSEDEEDNEEEERSRGKEQRKLARQRSRAWLKEGGGDEPLNFLDPKVAQRVLATQPGPGRGRKKDHGFKVSADGRLIIREEADGNKMEEEEGAKGEDEEMADPMEDVIIRNKKHQKLKHQKEAEEEELEIPPQYQAGGSGIHRPVAKKAMPGAEYKAKKAKGDVKKKGRPDPYAYIPLNRSKLNRRKKMKLQGQFKGLVKAARRGSQVGHKNRRKDRRP | binds
4 | Baz1b (protein, UniProt Q9UIG0 1-1483) MAPLLGRKPFPLVKPLPGEEPLFTIPHTQEAFRTREEYEARLERYSERIWTCKSTGSSQLTHKEAWEEEQEVAELLKEEFPAWYEKLVLEMVHHNTASLEKLVDTAWLEIMTKYAVGEECDFEVGKEKMLKVKIVKIHPLEKVDEEATEKKSDGACDSPSSDKENSSQIAQDHQKKETVVKEDEGRRESINDRARRSPRKLPTSLKKGERKWAPPKFLPHKYDVKLQNEDKIISNVPADSLIRTERPPNKEIVRYFIRHNALRAGTGENAPWVVEDELVKKYSLPSKFSDFLLDPYKYMTLNPSTKRKNTGSPDRKPSKKSKTDNSSLSSPLNPKLWCHVHLKKSLSGSPLKVKNSKNSKSPEEHLEEMMKMMSPNKLHTNFHIPKKGPPAKKPGKHSDKPLKAKGRSKGILNGQKSTGNSKSPKKGLKTPKTKMKQMTLLDMAKGTQKMTRAPRNSGGTPRTSSKPHKHLPPAALHLIAYYKENKDREDKRSALSCVISKTARLLSSEDRARLPEELRSLVQKRYELLEHKKRWASMSEEQRKEYLKKKREELKKKLKEKAKERREKEMLERLEKQKRYEDQELTGKNLPAFRLVDTPEGLPNTLFGDVAMVVEFLSCYSGLLLPDAQYPITAVSLMEALSADKGGFLYLNRVLVILLQTLLQDEIAEDYGELGMKLSEIPLTLHSVSELVRLCLRRSDVQEESEGSDTDDNKDSAAFEDNEVQDEFLEKLETSEFFELTSEEKLQILTALCHRILMTYSVQDHMETRQQMSAELWKERLAVLKEENDKKRAEKQKRKEMEAKNKENGKVENGLGKTDRKKEIVKFEPQVDTEAEDMISAVKSRRLLAIQAKKEREIQEREMKVKLERQAEEERIRKHKAAAEKAFQEGIAKAKLVMRRTPIGTDRNHNRYWLFSDEVPGLFIEKGWVHDSIDYRFNHHCKDHTVSGDEDYCPRSKKANLGKNASMNTQHGTATEVAVETTTPKQGQNLWFLCDSQKELDELLNCLHPQGIRESQLKERLEKRYQDIIHSIHLARKPNLGLKSCDGNQELLNFLRSDLIEVATRLQKGGLGYVEETSEFEARVISLEKLKDFGECVIALQASVIKKFLQGFMAPKQKRRKLQSEDSAKTEEVDEEKKMVEEAKVASALEKWKTAIREAQTFSRMHVLLGMLDACIKWDMSAENARCKVCRKKGEDDKLILCDECNKAFHLFCLRPALYEVPDGEWQCPACQPATARRNSRGRNYTEESASEDSEDDESDEEEEEEEEEEEEEDYEVAGLRLRPRKTIRGKHSVIPPAARSGRRPGKKPHSTRRSQPKAPPVDDAEVDELVLQTKRSSRRQSLELQKCEEILHKIVKYRFSWPFREPVTRDEAEDYYDVITHPMDFQTVQNKCSCGSYRSVQEFLTDMKQVFTNAEVYNCRGSHVLSCMVKTEQCLVALLHKHLPGHPYVRRKRKKFPDRLAEDEGDSEPEAVGQSRGRRQKK | binds
